These results are taken from paper PMC11997328.

Amino acid sequences for entries named in this document (tags omitted).
UniProt O15037: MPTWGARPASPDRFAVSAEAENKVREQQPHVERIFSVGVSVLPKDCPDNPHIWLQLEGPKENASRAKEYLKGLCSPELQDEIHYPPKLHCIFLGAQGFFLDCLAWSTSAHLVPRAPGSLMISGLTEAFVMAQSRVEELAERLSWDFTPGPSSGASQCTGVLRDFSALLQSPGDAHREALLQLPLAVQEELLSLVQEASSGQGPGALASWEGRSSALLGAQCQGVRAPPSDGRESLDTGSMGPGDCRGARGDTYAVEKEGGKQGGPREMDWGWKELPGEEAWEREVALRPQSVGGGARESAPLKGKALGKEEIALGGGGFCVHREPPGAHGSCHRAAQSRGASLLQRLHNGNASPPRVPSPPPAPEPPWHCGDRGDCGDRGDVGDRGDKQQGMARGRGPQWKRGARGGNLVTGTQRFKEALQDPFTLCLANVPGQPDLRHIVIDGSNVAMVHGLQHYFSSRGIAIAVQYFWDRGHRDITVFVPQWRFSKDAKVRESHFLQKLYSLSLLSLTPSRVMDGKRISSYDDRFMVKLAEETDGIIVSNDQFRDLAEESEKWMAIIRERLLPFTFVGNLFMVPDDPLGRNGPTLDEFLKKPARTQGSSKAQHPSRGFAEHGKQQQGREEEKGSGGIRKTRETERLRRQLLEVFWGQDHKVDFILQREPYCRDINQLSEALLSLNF
UniProt Q7Z2W4: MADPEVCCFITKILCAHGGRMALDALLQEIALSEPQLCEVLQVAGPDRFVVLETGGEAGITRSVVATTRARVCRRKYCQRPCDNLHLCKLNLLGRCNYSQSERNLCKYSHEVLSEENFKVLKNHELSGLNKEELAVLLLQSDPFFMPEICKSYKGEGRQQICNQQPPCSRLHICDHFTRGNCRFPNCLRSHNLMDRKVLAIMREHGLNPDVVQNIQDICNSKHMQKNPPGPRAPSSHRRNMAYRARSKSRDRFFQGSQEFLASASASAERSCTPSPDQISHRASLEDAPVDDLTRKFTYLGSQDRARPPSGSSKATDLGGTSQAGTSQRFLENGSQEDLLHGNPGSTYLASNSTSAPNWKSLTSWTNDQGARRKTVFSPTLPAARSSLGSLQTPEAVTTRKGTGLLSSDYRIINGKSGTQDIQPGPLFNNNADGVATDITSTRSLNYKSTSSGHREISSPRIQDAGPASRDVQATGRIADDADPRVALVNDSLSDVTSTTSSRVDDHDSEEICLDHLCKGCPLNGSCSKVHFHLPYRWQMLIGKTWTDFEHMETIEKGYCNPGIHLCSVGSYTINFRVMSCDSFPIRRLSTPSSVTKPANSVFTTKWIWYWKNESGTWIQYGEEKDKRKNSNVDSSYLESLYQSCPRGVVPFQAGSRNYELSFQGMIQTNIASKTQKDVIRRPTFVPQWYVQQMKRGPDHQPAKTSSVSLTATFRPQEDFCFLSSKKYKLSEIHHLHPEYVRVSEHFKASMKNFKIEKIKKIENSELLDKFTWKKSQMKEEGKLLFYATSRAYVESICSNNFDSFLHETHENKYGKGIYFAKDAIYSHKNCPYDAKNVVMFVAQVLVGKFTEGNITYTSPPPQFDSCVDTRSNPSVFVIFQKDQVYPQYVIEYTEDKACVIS

The target in this experiment is WT KHNYN-GFP (human) (UniProt O15037). As to the kind of experiment: co-IP; HeLa cells stably expressing KHNYN-GFP proteins; lysis in 0.5% NP-40, 150 mM KCl, 10 mM Hepes pH 7.5, 3 mM MgCl2; post-nuclear supernatant precipitated with anti-GFP and Protein G Dynabeads; Western blot. (In general: A western blot detects proteins with antibodies after separation by electrophoresis.)

No constants are given. Whether binding was seen depends on the method and setting. In cells and extracts the contact can be indirect. Some entries that bind do so weakly or less than the wild type.

For “Zinc finger antiviral protein (ZAP) (from UniProt Q7Z2W4 1-902)”, the binding entry is “binds”.
